Series [1] can be described thus: CEST spectra on NMR spectrometer (paraCEST peak). The series is classed as physicochemical. The note with it: for paraCEST peak: Table 5; for maximum CEST position: 8 mM, 20 mM HEPES pH 6.85, 100 mM NaCl, B1=960 Hz, 400 MHz.
Series [2] is described as follows: 1H NMR proton resonance width, suitability for MRSI. The conditions noted are these: for MRSI (narrow proton resonances): Table 5. The series is classed as physicochemical.
A short description of series [3]: Benzoate hydroxylation (reactive oxygen species generation). The note with it: for Benzoate hydroxylation: 10 μM complex, 1.00 mM benzoate, 50 μM ascorbate, 50 μM H2O2, 100 mM NaCl, 20 mM HEPES, pH 7.5, 37° C., 1 hr.
A short description of series [4]: Effective magnetic moment by Evans' method. The series is classed as physicochemical.
Series [5] is described as follows: CEST imaging of phantoms on 4.7 Tesla MRI scanner. The note with it: 2-8 mM, 37° C., 20 mM HEPES, 100 mM NaCl, 4.7 T.
Series [6] can be described thus: Temperature dependence of non-exchangeable proton resonances (1H NMR, thermometry). The series is classed as physicochemical.
The mark [7] stands for this setting: Fe(L1): 100 mM NaCl in D2O, pH 7.4, Fe(L2): D2O, pH 7.0.

Structures are written as SMILES. Where “and” joins values, the source holds several entries; their conditions need not be identical. Identical values can stand only once.

For `NC(=O)CN1CCN(CC(N)=O)CCN(CC(N)=O)CC1.[Ni+2]` [Ni(L1)], the paraCEST peak in series [1] came out at 76 ppm. Besides, the “MRSI (narrow proton resonances)” value in series [2] was “No”.
The like results for `[Fe+2].c1ccc2[nH]c(CN3CCN(Cc4nc5ccccc5[nH]4)CCN(Cc4nc5ccccc5[nH]4)CC3)nc2c1` [Fe(L5)] were, in that order, 52 ppm and “Possible”.
`NC(=O)CN1CCN(CC(N)=O)CCN(CC(N)=O)CC1.[Fe+2]` [Fe(L1)]: in series [1], the CEST peak position amounted to 69 ppm and the paraCEST peak is 69 ppm. In series [1] (25° C.), the “maximum CEST position” value is 71 ppm. Moreover, the “CEST effect, temperature comparison” value in series [1] (37° C. vs 25° C.) was “larger at 37 °C than at 25 °C”. Further, the “maximum CEST position” value in series [1] (37° C.) is listed as 69 ppm. Besides, the Benzoate hydroxylation in series [3] is on record as 8.2 ± 0.9 % standard. Further, in series [2], the “proton resonance width / suitability for MRSI” value was “not suitable for MRSI” and the “MRSI (narrow proton resonances)” value was “No”. In series [4] (25° C.), this compound yielded an effective magnetic moment of 5.1 Bohr-Magnetons. In series [4] (setting [7]), this compound yielded an effective magnetic moment of 5.1 BM. Besides, the “CEST in phantoms, dependence on concentration” value in series [5] was “increases linearly with concentration”.
Take `CC(O)CN1CCN(CC(C)O)CCN(CC(C)O)CCN(CC(C)O)CC1.[Fe+2]` (stereo not drawn) [Fe(L6)]: in series [1], the paraCEST peak is on record as 54 ppm. Also, in series [2], the “MRSI (narrow proton resonances)” value is given as “Possible”.
Consider `Cc1nc(CN2CCN(Cc3ccc(N)c(C)n3)CCN(Cc3ccc(N)c(C)n3)CC2)ccc1N.[Fe+2]` [Fe(L2)], for which, in series [6] (iron(II) macrocyclic complexes), the CT/FWHM is 2.44 and 1.53; the Δ is listed as 201 ppm. The compound further had an FWHM in series [6] (linewidth, iron(II) macrocyclic complexes) of 0.388. Moreover, the “pH dependence of proton chemical shifts” value in series [6] (pH 6.5-8) is listed as “independent of pH”. For the same compound, the “linewidth of non-exchangeable proton resonances” value in series [6] (preliminary data) was determined as 250 Hz. Further, the CT in series [6] (temperature coefficient, iron(II) macrocyclic complexes) turned out to be 0.594 ppm/° C. For the same compound, in series [1], the CEST peak position was determined as 6 ppm and the paraCEST peak turned out to be 6 ppm. In addition, in series [2], the “proton resonance width / suitability for MRSI” value is reported as “suitable for MRSI” and the “MRSI (narrow proton resonances)” value is recorded as “Yes”. Moreover, in series [4] (25° C.), the effective magnetic moment came out at 5.8 Bohr-Magnetons. For the same compound, the effective magnetic moment in series [4] (setting [7]) is 5.8 BM.
In series [1], `CC(O)CN1CCNCCN(CC(C)O)CCNCC1.[Fe+2]` (stereo not drawn) [Fe(L7)] gave a CEST peak position of 170 ppm and a paraCEST peak of 170 ppm. The “MRSI (narrow proton resonances)” value in series [2] is reported as “Yes”.
Regarding `NC(=O)CN1CCN(CC(N)=O)CCN(CC(N)=O)CCN(CC(N)=O)CC1.[Fe+2]` [Fe(L4)], the paraCEST peak in series [1] is 50 ppm. For the same compound, in series [3], the “inertness towards hydroxylation of benzoate” value was “remarkably inert” and the Benzoate hydroxylation was found to be 3.5 ± 0.2 % standard. Besides, the “MRSI (narrow proton resonances)” value in series [2] was “No”.
In turn, `O=C([O-])CN(CCN(CC(=O)[O-])CC(=O)[O-])CC(=O)[O-].[Fe+3]` [Fe(EDTA), reference compound] returned a Benzoate hydroxylation in series [3] of 88 ± 2.5 % standard.
In the case of `Nc1cccc(CN2CCN(Cc3cccc(N)n3)CCN(Cc3cccc(N)n3)CC2)n1.[Fe+2]` [Fe(L8)], the paraCEST peak result in series [1] was “No”. The “MRSI (narrow proton resonances)” value in series [2] is “Yes”.

These data come from US11246949B2, “Imaging contrast agents and uses thereof” (The Research Foundation for The State University of New York, priority 2011, dated 2022).
